These are yes or no findings as the source states them, for the method shown. In cells and extracts the contact can be indirect. Some entries that bind do so weakly or less than the wild type.
Target: Orai1-HA (UniProt Q96D31)
Assay: co-IP; STIM1-FLAG and Orai1-HA co-expressed with GFP or GFP-ezrin (T567E, graded expression); lysate in IP buffer (20 mM Tris-HCl pH 7.5, 150 mM NaCl, 1% Triton X-100, protease inhibitors); anti-DYKDDDDK mAb beads, 2 h; immunoblot with anti-FLAG, anti-HA and anti-GFP

Protein sequences, listed by entry. Tags and fused reporters are not part of them. Lines headed by an entry give the natural chain unless they say otherwise; changes in a name come on top.
UniProt Q96D31: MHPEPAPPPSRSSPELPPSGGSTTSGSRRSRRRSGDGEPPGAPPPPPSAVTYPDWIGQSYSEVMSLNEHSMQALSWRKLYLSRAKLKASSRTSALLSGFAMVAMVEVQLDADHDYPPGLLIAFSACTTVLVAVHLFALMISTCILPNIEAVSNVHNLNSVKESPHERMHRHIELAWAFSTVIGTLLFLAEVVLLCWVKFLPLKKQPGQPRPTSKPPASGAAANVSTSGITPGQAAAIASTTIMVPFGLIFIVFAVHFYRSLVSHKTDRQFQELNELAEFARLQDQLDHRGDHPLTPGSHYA
UniProt P15311: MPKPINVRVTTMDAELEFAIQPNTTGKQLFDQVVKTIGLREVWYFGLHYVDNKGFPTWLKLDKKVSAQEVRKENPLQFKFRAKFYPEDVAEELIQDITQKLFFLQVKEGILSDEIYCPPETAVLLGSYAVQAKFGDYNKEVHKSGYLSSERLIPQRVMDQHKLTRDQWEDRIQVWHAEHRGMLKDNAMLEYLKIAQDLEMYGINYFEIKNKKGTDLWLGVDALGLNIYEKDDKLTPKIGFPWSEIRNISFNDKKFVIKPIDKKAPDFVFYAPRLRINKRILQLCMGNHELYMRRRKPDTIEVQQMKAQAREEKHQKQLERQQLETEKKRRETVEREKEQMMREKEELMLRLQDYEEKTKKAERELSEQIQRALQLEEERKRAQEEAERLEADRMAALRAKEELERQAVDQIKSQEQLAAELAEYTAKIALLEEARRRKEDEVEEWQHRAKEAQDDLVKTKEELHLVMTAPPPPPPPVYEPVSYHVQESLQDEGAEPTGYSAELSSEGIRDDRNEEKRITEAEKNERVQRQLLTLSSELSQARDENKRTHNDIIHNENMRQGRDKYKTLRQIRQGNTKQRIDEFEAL

binding: binds
Substance: GFP-ezrin T567E (from UniProt P15311 1-586)

From article PMC7817837
